Data published in US20110045007A1.
These are yes or no findings as the source states them, for the method shown. Some entries that bind do so weakly or less than the wild type.

Legend:
[1] = target: T1, Bet v 1 (Birch) (UniProt P15494); test: summary of the results (radio immuno assay of Example 49)
T1 sequence (125I label (chloramine-T) on the radiolabelled form, looked up): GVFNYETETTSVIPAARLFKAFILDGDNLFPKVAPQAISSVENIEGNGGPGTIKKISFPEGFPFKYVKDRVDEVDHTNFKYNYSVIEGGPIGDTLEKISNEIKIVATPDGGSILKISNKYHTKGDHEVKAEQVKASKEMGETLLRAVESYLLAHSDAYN

[2] = target: T1, Bet v 1 (Birch); test: radio immuno assay, antibody on Protein G Sepharose, 125I-labelled Bet v 1
[3] = target: T1, Bet v 1 (Birch); test: crosslinking radio immuno assay, Bet v 1 Sepharose and 125I-labelled Bet v 1
[4] = target: T1, Bet v 1 (Birch); test: gel filtration fractions tested with 125I-labelled Bet v 1 and Protein-G sepharose

Measured: binding

B1: Betv1-HG (antibody, V domains shown)
VH: EVQLQQSGAELVKPGASVKLSCTASGFNIKDTYIHWVKQRPEQGLEWVGRIDPATGNTRYDPKFQGKATITADTSSNTAYLQLSSLTSEDTAVYYCASFRPGYALDYWGQGTSVTVSS
VL: DIVMTQSHKFMSTSVGDRVSFTCKASQDVFTAVAWYQQKPGQSPKLLIYWASTRRTGVPDRFTGSGSGTDYTLTISSVQAEDLALYYCQQHFSTPPTFGGGTKLEIKR
binds: [1] | [2] | [3] | [4]

B2: Betv1-IgG1 (antibody, not shown: a dimerising Fc or GST)
heavy: EVQLQQSGAELVKPGASVKLSCTASGFNIKDTYIHWVKQRPEQGLEWVGRIDPATGNTRYDPKFQGKATITADTSSNTAYLQLSSLTSEDTAVYYCASFRPGYALDYWGQGTSVTVSS
light: DIVMTQSHKFMSTSVGDRVSFTCKASQDVFTAVAWYQQKPGQSPKLLIYWASTRRTGVPDRFTGSGSGTDYTLTISSVQAEDLALYYCQQHFSTPPTFGGGTKLEIKRTVAAPSVFIFPPSDEQLKSGTASVVCLLNNFYPREAKVQWKVDNALQSGNSQESVTEQDSKDSTYSLSSTLTLSKADYEKHKVYACEVTHQGLSSPVTKSFNRGEC
binds: [2] | [3]
